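Malaria parasite (P. falciparum) lines kept in red blood cells; parasite DNA is measured by SYBR Green fluorescence after lysis, 72 h after compound addition. Each compound was titrated across a series from about 0.000037 to 29 µM. The number is the fitted AC50, the concentration giving a half-maximal change in signal; a lower value means higher potency, whether the curve shows a decrease or an increase. Calls follow the curve class and fit quality: every row here is inconclusive, covering signal-raising curves and weak, poorly fitted, partial or highest-dose-only inhibition curves.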

Values are in µM. Every entry below has the call inconclusive. These entries are mostly ones the record files as inconclusive; other results of the assay are not listed here. A potency from a partial, single-point or poor curve is only a rough figure. Some entries filed as inconclusive have a full curve. The first word of each remark tells which way the curve ran; it can be opposite to the aim of the assay.

| compound | condition | fitted potency (µM) | remark |
|---|---|---|---|
| `O=C(O)CCNC(=O)c1ccccc1` | CP192 | 19.01 | inhibitor, single point |
| `CO/N=C(/C(=O)N[C@@H]1C(=O)N2C(C(=O)O)=C(CSC(=O)c3ccco3)CSC12)c1csc(N)n1` (some centres not stated) | CP305 | 0.0005 | inhibitor |
| `CO/N=C(/C(=O)N[C@@H]1C(=O)N2C(C(=O)O)=C(CSC(=O)c3ccco3)CSC12)c1csc(N)n1` (some centres not stated) | GB4 | 13.46 | inhibitor, single point |
| `CN(C)c1ccc(C(=C2C=CC(=[N+](C)C)C=C2)c2ccc(N(C)C)cc2)cc1` | CP203 | 1.346 | inhibitor, full curve, poor fit |
| `Cc1ccc2c(c1)[C@@H]1CN(C)CC[C@H]1N2` | CP266 | 0.6746 | inhibitor, full curve |
| `Cc1ccc2c(c1)[C@@H]1CN(C)CC[C@H]1N2` | W2 | 19.01 | inhibitor, single point |
| `Cc1ccc2c(c1)[C@@H]1CN(C)CC[C@H]1N2` | DIV30 | 0.0478 | inhibitor, full curve, poor fit |
| `Cc1ccc2c(c1)[C@@H]1CN(C)CC[C@H]1N2` | GB4 | 13.46 | inhibitor, single point |
| `Cc1ccc2c(c1)[C@@H]1CN(C)CC[C@H]1N2` | CP237 | 10 | inhibitor, single point |
| `O=C1c2ccccc2C(=O)C1c1ccc(Cl)cc1` | ICS | 11.22 | inhibitor, single point |
| `CN(C)C(=O)Oc1ccc[n+](C)c1` | CP247 | 3.981 | inhibitor, single point |
| `O=C(O)CCCCC(=O)O` | CP335 | 4.256 | inhibitor, single point |
| `CC(=O)OCC(CCn1cnc2cnc(N)nc21)COC(C)=O` | CP266 | 0.0135 | activator |
| `CC1(C)OC[C@@H]2O[C@@]3(C(=O)O)OC(C)(C)O[C@@H]3[C@@H]2O1` | W2 | 21.33 | inhibitor, partial curve, poor fit |
| `CO[C@]1(NC(=O)CSCC#N)C(=O)N2C(C(=O)O)=C(CSc3nnnn3C)CS[C@H]21` | CP266 | 15.1 | inhibitor, single point |
| `CO[C@]1(NC(=O)CSCC#N)C(=O)N2C(C(=O)O)=C(CSc3nnnn3C)CS[C@H]21` | CP297 | 19.01 | inhibitor, single point |
| `CCN(CC)CCNc1ccc(CO)c2sc3ccccc3c(=O)c12` | PC49 | 11.22 | inhibitor, single point |
| `CCN(CC)CCNc1ccc(CO)c2sc3ccccc3c(=O)c12` | FAB9 | 11.22 | inhibitor, single point |
| `Oc1c(Br)cc(Br)cc1Br` | CP297 | 0.0034 | inhibitor, full curve, poor fit |
| `CC(C)COC(=O)c1ccc(N)cc1` | parasite line A | 0.0141 | inhibitor, full curve |
| `CC(C)COC(=O)c1ccc(N)cc1` | CP269 | 0.003 | activator |
| `CC(C)COC(=O)c1ccc(N)cc1` | CP291 | 0.0038 | activator |
| `CC(C)COC(=O)c1ccc(N)cc1` | CP325 | 0.0213 | activator |
| `CC(C)COC(=O)c1ccc(N)cc1` | DIV14 | 12 | inhibitor, partial curve, poor fit |
| `CC(C)COC(=O)c1ccc(N)cc1` | CP203 | 0.0067 | activator |
| `CC(C)COC(=O)c1ccc(N)cc1` | P94_40 | 0.0708 | inhibitor, full curve, poor fit |
| `CC(C)COC(=O)c1ccc(N)cc1` | CP329 | 0.0076 | activator, full curve |
| `CC(C)COC(=O)c1ccc(N)cc1` | TAB109 | 0.0028 | inhibitor, full curve |
| `CC(C)COC(=O)c1ccc(N)cc1` | CP201 | 0.0034 | activator |
| `N=C(N)c1ccc(/C=C/c2ccc(C(=N)N)cc2O)cc1` | PC49 | 19.95 | inhibitor, partial curve, poor fit |
| `N=C(N)c1ccc(/C=C/c2ccc(C(=N)N)cc2O)cc1` | CP266 | 0.3793 | inhibitor, full curve, poor fit |
| `N=C(N)c1ccc(/C=C/c2ccc(C(=N)N)cc2O)cc1` | PAD | 12.59 | inhibitor, partial curve, poor fit |
| `N=C(N)c1ccc(/C=C/c2ccc(C(=N)N)cc2O)cc1` | CP211 | 1.901 | inhibitor, partial curve, poor fit |
| `N=C(N)c1ccc(/C=C/c2ccc(C(=N)N)cc2O)cc1` | ATS189 | 5.623 | inhibitor, partial curve, poor fit |
| `N=C(N)c1ccc(/C=C/c2ccc(C(=N)N)cc2O)cc1` | 3D7 | 6.31 | inhibitor, partial curve, poor fit |
| `O=C(O)Cn1c(C(=O)Nc2nc(-c3ccccc3Cl)cs2)cc2ccccc21` | ICS | 12.59 | inhibitor, partial curve, poor fit |
| `CN1CCC(=C2c3ccccc3Sc3ccccc32)CC1` | FAB9 | 17.78 | inhibitor, single point |
| `CN1CCC(=C2c3ccccc3Sc3ccccc32)CC1` | PC26 | 12 | inhibitor, partial curve, poor fit |
| `CN1CCC(=C2c3ccccc3Sc3ccccc32)CC1` | CP329 | 12 | inhibitor, single point |
| `CN1CCC(=C2c3ccccc3Sc3ccccc32)CC1` | CP262 | 19.01 | inhibitor, single point |
| `CN1CCC(=C2c3ccccc3Sc3ccccc32)CC1` | HB3 | 10 | inhibitor, single point |
| `CN1CCC(=C2c3ccccc3Sc3ccccc32)CC1` | CP192 | 19.01 | inhibitor, single point |
| `CN1CCC(=C2c3ccccc3Sc3ccccc32)CC1` | CP266 | 12 | inhibitor, partial curve |
| `C=C[C@@]1(C)CC(=O)[C@]2(O)[C@@]3(C)[C@@H](O)CCC(C)(C)[C@@H]3[C@H](O)[C@H](OC(C)=O)[C@@]2(C)O1` | 7G8 | 4.467 | inhibitor, partial curve, poor fit |
| `Cc1nc2ccccn2c(=O)c1CCN1CCC(C(=O)c2ccc(F)cc2)CC1` | P93_24 | 11.22 | inhibitor, single point |
| `Cc1nc2ccccn2c(=O)c1CCN1CCC(C(=O)c2ccc(F)cc2)CC1` | ATS95 | 12.59 | inhibitor, single point |

From PubChem BioAssay record AID504749 (NCATS, 2011).